In article PMC6322289 one finds binding data, which are given here for two molecules.

Chains of the proteins cited; added tags and fusions are not shown. Residues count along the entry.
UniProt P52407, residues 37-356: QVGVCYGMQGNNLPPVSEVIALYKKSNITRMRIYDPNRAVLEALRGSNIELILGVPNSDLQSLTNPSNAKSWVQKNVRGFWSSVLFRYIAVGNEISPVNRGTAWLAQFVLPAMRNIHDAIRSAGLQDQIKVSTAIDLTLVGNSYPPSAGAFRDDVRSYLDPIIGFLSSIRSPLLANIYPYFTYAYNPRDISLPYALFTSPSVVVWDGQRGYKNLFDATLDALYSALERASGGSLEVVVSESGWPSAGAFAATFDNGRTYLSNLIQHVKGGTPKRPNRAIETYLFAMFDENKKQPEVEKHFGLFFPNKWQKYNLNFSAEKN

These are yes or no findings as the source states them, for the method shown. Some results given as binding are weak or reduced against the parent protein; the word gives no strength.

Assay [1] deals with β-1,3-glucanase (Hevea brasiliensis (endogenous in latex of clone CATAS7-33-97)) (UniProt P52407). As to the kind of experiment: SEC; clarified B-serum on Sephacryl S-200HR (70 x 2.6 cm), eluted with 50 mM Tris-HCl + 25 mM NaCl, pH 7.2; peaks read by Tricine-SDS-PAGE and western blotting; control elution at pH 5.5. In general terms: Size exclusion chromatography separates by hydrodynamic size, large species first.

Assay [2] concerns the target T1, pro-hevein (Hevea brasiliensis (endogenous in latex of clone CATAS7-33-97)) (UniProt P02877).
T1 sequence: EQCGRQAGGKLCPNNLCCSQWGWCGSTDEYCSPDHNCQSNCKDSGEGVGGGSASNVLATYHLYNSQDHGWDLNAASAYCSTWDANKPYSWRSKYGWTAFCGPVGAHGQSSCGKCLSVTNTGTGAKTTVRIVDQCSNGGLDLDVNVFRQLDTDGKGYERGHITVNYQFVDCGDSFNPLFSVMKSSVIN
Described as above.

B1: pro-hevein (protein, UniProt P02877 18-204)
chain: T1 sequence
As to B1, the binding result in assay [1] is recorded as “binds”.

Turning to EQCGRQAGGKLCPNNLCCSQWGWCGSTDEYCSPDHNCQSNCKD (peptide, UniProt P02877 18-60) [hevein], the binding entry in assay [2] and in assay [1] was “binds” each time.
